This note sets out measurements from paper PMC9172071, “Peach fruit PpNAC1 activates PpFAD3-1 transcription to provide ω-3 fatty acids for the synthesis of short-chain flavor volatiles”.

For part of these data: A negative result means that nothing was seen under these conditions. At least one verdict rests on a figure or table, not on a statement of the authors. Protein sequences can lack the tags named with them. The exact form of at least one protein or probe is not confirmed.

Series [1] addresses T1, GST-PpNAC1 (Prunus persica (peach)) (UniProt M5WG30).
T1 sequence (looked up): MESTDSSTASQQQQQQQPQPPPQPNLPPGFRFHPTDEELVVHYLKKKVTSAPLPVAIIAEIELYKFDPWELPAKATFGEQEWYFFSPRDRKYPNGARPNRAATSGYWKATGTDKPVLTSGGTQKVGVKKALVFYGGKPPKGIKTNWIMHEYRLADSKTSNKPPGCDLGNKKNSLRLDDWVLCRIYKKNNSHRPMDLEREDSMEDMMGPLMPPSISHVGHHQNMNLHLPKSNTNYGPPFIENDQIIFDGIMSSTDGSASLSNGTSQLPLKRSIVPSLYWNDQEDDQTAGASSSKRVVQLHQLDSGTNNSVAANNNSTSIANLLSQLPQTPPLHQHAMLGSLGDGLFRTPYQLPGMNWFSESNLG
The series can be described thus: EMSA. The settings on record: LightShift Chemiluminescent EMSA kit (Thermo Fisher); pH and temperature not stated (refers to previous study); recombinant protein; residues 1-363; protein details: GST (N-terminal, pGEX-4T-1); label: 3' biotin. On the technique in general: Mobility shift assays separate free from complexed probe on a gel.

Series [2] concerns the target T1, GST-PpNAC1 (Prunus persica (peach)). The series can be described thus: competition EMSA. The note with it: LightShift Chemiluminescent EMSA kit (Thermo Fisher); pH and temperature not stated (refers to previous study); recombinant protein; residues 1-363; protein details: GST (N-terminal, pGEX-4T-1).

With “AACCCCAAACTTGCGTGCAAAGTAACTGGTG (double strand) [Probe1 (PpFAD3-1 promoter NACBS, biotin)]”, in series [1], the binding result is given as “binds”. Regarding “AACCCCAAACTTGCGTGCAAAGTAACTGGTG (double strand) [Probe1 cold (unlabeled competitor)]”, in series [2], the binding result is “binds”. “AGCTTTCTGGAGCAAGTAAATGGTTTTCAA (double strand) [Probe2 (PpFAD3-1 promoter NACBS, biotin)]”: in series [1], the binding result is “no binding”.
